# This is one part of the list.
# The chains behind the UniProt entries cited, without tags or fusion partners. Where a name states a change or a piece, a line headed by the entry shows the natural chain unless it says otherwise.
# UniProt P21397, whole entry, looked up: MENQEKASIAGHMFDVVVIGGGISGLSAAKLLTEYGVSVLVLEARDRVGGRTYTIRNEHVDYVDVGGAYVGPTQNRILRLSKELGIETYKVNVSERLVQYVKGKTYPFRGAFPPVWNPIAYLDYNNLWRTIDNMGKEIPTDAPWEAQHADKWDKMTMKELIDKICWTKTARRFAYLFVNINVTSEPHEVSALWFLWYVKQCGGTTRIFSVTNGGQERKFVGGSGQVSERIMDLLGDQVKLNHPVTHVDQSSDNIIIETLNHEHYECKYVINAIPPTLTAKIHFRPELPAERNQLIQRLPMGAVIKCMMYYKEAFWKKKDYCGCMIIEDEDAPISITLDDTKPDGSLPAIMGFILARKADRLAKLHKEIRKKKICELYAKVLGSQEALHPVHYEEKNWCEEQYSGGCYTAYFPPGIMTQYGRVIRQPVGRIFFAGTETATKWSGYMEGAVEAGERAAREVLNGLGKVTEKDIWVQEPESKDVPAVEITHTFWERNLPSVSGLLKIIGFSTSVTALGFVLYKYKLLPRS
# UniProt Q99759: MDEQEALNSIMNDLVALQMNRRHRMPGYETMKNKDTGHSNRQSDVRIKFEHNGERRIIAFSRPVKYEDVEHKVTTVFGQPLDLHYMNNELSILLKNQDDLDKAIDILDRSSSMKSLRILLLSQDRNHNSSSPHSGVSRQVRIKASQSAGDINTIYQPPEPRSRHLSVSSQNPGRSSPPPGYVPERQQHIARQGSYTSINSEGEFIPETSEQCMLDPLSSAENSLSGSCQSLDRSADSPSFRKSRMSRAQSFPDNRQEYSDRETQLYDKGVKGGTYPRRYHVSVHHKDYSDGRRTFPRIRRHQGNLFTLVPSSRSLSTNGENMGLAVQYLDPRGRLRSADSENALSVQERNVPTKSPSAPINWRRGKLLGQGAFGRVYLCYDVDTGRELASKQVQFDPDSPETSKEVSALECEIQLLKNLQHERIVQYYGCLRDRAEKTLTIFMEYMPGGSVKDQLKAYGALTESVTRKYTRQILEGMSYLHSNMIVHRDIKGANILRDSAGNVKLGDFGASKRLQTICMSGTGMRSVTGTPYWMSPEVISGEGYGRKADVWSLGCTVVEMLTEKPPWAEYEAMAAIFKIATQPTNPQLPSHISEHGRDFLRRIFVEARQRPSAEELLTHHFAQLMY
# UniProt Q13233: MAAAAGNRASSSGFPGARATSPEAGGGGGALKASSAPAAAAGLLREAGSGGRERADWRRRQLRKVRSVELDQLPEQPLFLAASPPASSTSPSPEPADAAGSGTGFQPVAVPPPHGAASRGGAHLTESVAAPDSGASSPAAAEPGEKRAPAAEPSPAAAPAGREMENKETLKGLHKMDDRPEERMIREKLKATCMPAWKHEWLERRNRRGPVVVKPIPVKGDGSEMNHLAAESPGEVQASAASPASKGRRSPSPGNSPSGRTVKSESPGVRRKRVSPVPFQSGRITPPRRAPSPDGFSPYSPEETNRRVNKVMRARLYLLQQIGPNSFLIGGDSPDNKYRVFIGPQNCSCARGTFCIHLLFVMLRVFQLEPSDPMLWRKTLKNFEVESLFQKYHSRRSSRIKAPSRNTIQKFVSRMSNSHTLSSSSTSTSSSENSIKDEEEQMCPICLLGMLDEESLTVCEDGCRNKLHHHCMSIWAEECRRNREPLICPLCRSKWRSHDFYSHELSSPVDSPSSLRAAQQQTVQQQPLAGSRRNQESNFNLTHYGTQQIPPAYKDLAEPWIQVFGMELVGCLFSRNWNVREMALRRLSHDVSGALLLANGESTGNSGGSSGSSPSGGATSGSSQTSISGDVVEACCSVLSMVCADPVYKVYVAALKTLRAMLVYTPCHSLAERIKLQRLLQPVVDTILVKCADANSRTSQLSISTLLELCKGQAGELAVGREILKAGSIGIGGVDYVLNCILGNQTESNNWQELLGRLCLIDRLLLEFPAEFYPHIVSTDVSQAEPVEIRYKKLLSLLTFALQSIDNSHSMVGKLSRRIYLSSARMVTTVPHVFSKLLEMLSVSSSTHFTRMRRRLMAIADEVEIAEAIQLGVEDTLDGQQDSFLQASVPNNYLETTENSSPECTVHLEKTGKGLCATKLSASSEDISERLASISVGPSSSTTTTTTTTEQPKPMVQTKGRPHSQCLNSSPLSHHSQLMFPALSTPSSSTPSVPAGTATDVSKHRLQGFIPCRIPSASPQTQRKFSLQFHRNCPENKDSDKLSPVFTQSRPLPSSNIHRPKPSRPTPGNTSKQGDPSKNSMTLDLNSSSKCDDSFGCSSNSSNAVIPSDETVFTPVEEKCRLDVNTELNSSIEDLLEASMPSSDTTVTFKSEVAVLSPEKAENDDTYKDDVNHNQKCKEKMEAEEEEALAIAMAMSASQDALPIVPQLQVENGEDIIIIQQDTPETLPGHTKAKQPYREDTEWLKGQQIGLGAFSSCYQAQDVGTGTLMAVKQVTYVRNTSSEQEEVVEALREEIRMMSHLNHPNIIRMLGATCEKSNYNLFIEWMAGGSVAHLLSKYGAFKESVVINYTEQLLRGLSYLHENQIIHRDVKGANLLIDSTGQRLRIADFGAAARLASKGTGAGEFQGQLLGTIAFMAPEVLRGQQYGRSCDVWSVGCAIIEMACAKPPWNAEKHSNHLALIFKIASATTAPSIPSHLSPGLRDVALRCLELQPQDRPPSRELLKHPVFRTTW
# UniProt P43360, whole entry, looked up: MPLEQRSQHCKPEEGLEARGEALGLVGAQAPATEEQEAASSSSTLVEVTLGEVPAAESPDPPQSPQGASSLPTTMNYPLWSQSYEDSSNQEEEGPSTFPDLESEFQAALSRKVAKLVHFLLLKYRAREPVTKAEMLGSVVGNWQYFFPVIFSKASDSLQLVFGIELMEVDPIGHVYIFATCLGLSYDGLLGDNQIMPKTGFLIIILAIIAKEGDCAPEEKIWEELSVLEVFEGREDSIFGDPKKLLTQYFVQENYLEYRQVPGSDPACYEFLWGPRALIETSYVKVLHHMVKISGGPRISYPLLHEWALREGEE
# UniProt Q13164: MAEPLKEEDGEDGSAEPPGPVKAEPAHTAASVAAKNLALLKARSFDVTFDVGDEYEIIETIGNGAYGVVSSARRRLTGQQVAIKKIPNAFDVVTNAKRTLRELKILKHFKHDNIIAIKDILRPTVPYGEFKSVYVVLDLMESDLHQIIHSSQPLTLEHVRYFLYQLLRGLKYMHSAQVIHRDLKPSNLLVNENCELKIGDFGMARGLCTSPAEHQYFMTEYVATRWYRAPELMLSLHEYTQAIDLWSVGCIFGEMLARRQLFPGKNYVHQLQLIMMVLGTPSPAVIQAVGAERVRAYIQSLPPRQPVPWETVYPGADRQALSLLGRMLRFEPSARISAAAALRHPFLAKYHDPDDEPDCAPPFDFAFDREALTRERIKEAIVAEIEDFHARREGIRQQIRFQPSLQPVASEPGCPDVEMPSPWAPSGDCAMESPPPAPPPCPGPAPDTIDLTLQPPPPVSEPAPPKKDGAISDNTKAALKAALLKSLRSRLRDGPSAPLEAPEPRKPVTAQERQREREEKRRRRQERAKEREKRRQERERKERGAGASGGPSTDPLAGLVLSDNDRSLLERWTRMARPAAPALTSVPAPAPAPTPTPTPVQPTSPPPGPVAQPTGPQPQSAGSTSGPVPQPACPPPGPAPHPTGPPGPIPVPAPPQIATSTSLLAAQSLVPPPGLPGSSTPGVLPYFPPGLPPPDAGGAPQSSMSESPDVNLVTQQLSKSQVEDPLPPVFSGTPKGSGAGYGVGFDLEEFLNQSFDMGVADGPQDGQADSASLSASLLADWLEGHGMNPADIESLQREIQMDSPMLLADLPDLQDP
# UniProt Q8TD08: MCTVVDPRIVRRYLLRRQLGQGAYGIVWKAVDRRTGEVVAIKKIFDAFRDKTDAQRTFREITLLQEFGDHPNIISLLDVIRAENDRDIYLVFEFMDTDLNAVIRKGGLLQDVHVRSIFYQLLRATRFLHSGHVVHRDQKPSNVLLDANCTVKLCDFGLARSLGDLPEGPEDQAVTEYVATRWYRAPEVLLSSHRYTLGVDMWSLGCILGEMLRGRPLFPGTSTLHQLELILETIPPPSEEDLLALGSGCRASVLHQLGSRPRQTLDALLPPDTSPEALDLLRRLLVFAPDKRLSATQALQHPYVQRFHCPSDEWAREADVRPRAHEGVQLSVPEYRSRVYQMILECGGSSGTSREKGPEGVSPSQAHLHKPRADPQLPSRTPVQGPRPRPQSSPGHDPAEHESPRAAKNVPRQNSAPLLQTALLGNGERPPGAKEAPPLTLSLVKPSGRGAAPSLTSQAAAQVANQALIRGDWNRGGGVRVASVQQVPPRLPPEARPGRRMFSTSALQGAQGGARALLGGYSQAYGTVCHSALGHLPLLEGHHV
# Experiments:
# Experiment in all cases: log2 fold change, soluble protein after heating vs DMSO (PISA); higher = thermal stabilisation; K562 lysate, 10 uM; active = over 0.2 and 3.5 SD of the protein, either way, in both replicates (recomputed)
# [1] = compound: Cc1sc2c(c1C)C(c1ccc(Cl)cc1)=N[C@@H](CC(=O)OC(C)(C)C)c1nnc(C)n1-2
# Procedure, shortened: (§1)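 To prepare the extract, K562 pellets were dounce-homogenised in PBS pH 7.4 with 1 mM MgCl2, giving crude material at 1 mg/mL protein. This was treated with 10 μM compound for 30 min, then heated in aliquots for 3 min over 48°C-58°C before pooling and addition of NP-40 to 0.5% at 4°C. Centrifugation at 21,000xg for 90 min left soluble protein in the supernatant, which TMTpro 16plex LC-MS/MS quantified with equalised channel sums. Results are log-two fold changes in thermal stability compared with solvent controls, from duplicates.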
# [2] = compound: CC1=C2C(=CC=C1)N=C(N(C2=O)C3=CC=CC=C3C)CN4C=NC5=C(N=CN=C54)N
# Procedure, shortened: as §1
# [3] = compound: c1ccc([C@@H]2C[C@H]2NC2CCNCC2)cc1
# Procedure, shortened: as §1
target,measurement,setting,value
MAOA (UniProt P21397),log2 fold change,[1],inactive: 0.079
MAGI1 (UniProt H7C4S7),log2 fold change,[1],inactive: 0.016
MAP3K3 isoform 2 (UniProt Q99759),log2 fold change,[2],inactive: 0.031
same,log2 fold change,[1],inactive: 0.005
MAP3K1 (UniProt Q13233),log2 fold change,[2],inactive: -0.063
same,log2 fold change,[3],inactive: -0.066
MAGEA6 (UniProt P43360),log2 fold change,[2],inactive: 0.086
MAPK7 (UniProt Q13164),log2 fold change,[3],inactive: 0.042
MAPK15 (UniProt Q8TD08),log2 fold change,[1],inactive: -0.41

# — the supplement of paper PMC10849652
